Source: paper PMC12629419
These are yes or no findings as the source states them, for the method shown. In cells and extracts the contact can be indirect. A result given as binding can be weak or reduced; the word gives no strength.

Chains of the proteins cited; added tags and fusions are not shown. Lines headed by an entry give the natural chain unless they say otherwise; changes in a name come on top. A line that says so, or that is headed by a name, gives the form on record, which may keep a tag or linker.
UniProt O96871: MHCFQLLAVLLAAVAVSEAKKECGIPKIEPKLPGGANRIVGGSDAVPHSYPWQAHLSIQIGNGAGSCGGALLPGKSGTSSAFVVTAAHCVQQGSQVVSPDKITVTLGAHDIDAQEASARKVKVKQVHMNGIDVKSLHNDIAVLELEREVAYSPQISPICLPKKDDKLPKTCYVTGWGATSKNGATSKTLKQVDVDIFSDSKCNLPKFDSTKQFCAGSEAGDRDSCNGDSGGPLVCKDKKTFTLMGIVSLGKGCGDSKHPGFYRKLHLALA
Type II cytokeratin 8 (CK8) in Caco-2 cells (P05787-2, form named): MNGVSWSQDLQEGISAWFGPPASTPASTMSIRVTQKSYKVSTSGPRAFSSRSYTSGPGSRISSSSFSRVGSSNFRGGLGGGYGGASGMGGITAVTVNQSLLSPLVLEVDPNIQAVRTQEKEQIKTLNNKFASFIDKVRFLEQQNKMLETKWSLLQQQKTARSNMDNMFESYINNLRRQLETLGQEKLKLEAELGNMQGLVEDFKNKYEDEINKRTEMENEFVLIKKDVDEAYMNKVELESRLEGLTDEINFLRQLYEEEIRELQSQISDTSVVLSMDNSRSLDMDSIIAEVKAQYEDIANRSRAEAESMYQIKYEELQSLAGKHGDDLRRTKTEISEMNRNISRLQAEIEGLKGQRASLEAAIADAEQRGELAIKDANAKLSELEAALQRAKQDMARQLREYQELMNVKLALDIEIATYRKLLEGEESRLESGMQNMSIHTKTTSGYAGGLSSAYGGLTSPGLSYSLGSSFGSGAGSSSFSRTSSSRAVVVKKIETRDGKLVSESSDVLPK

How the values were obtained:
[1] = target: Recombinant Trichinella spiralis serine proteinase (rTsSPc) with a His-tag (Trichinella spiralis) (UniProt O96871); experiment: co-IP; Caco-2 monolayer incubated with His-tagged rTsSPc (20 ug/ml) at 37 C, 5% CO2 for 2 h; lysed in DISC buffer (30 mM Tris-HCl pH 8.0, 120 mM NaCl, 10% glycerol, 1% Triton X-100); Protein A/G agarose with mouse anti-rTsSPc serum or normal IgG, 4 h; Western blot; only the target purified
[2] = target: Recombinant Trichinella spiralis serine proteinase (rTsSPc) with a GST-tag (Trichinella spiralis) (UniProt O96871); experiment: pull-down; GST-tagged rTsSPc (or GST tag protein) pre-immobilised on GST resin, 2 h at 4 C; washed with binding buffer (4.2 mM Na2HPO4, 2 mM KH2PO4, 140 mM NaCl, 10 mM KCl); incubated with lysate of normal Caco-2 cells for 2 h at 4 C; Western blot with anti-rTsSPc serum, anti-GST and anti-CK8; only the target purified

## Type II cytokeratin 8 (CK8) in Caco-2 cells (from UniProt P05787-2 1-511)
[1]
  binding: binds
[2]
  binding: binds
